{"source": "patent US12410228B2", "about": "(UNIVERSITY OF UTAH RESEARCH FOUNDATION, priority 2016, dated 2025)", "experiment": "general procedure: Fmoc solid-phase peptide synthesis; Fmoc-Cys(Trt)-Rink Amide MBHA resin (0.21 mmol/g) for chain A; Fmoc-Arg(Pbf)-Wang resin (0.4 mmol/g) for chain B; HATU/DIEA", "details": "for isolated mass: whole synthesis, scale 0.1 mmol", "data": [{"substance": "sCon-Ins G1[GluA4, ProB3, GluB10] (partially folded)", "values": [{"measurement": "oxidative folding yield", "setting": "oxidative folding step", "value": 28, "unit": "%"}]}, {"substance": "TFDTOKHRCGSyITNSYMDLCYR", "values": [{"measurement": "isolated mass", "value": 25.9, "unit": "mg"}]}, {"substance": "Con-Ins G1 (partially folded)", "values": [{"measurement": "oxidative folding yield", "setting": "oxidative folding step, based on the starting amount of 7 umol", "value": 12.1, "unit": "%"}]}, {"substance": "sCon-Ins G1[GluA4, ProB3, GluB10]", "values": [{"measurement": "final HPLC purity", "setting": "oxidative folding step, RP-HPLC (214 and 280 nm) and capillary electrophoresis, several disulfide bridges", "value": 97, "unit": "%"}, {"measurement": "oxidative folding yield", "setting": "oxidative folding step, several disulfide bridges", "value": 14, "unit": "%"}]}, {"substance": "GVVyHCCHRPCSNAEFKKYC*", "values": [{"measurement": "isolated mass", "value": 18.7, "unit": "mg"}]}]}
